Measurements: PubChem BioAssay (Tox21)
The shares of active, inactive and inconclusive entries below differ from those in the screen. For some assays here: Where the call is inconclusive, the potency comes from a doubtful curve fit. Calls of active or inactive are those of the source. Unless noted, calls follow the shape of the dose curve; as a rule, active = well fitted curve in the direction sought with a large enough effect in the repeat runs; inconclusive = weak or mixed curves; inactive = no such curve, though single readings can be large; an effect the other way counts as inactive or inconclusive.

Sequences of proteins named here, by UniProt entry; tags and fusion partners are left off. A change or cut given only in a name is not applied to a line headed by its entry.
UniProt P19793: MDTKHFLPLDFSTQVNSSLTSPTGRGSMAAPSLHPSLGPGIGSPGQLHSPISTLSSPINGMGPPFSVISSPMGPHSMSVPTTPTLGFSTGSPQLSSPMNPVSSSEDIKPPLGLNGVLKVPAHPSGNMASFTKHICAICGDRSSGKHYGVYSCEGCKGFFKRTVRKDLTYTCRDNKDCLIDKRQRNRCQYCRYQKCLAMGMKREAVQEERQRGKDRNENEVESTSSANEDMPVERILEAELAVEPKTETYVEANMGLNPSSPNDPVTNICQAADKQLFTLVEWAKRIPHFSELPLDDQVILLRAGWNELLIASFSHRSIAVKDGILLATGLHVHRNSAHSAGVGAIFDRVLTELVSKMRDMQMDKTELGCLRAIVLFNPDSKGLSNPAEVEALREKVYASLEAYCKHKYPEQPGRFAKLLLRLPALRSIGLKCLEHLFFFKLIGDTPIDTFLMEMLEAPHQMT
UniProt Q92731, whole entry, looked up: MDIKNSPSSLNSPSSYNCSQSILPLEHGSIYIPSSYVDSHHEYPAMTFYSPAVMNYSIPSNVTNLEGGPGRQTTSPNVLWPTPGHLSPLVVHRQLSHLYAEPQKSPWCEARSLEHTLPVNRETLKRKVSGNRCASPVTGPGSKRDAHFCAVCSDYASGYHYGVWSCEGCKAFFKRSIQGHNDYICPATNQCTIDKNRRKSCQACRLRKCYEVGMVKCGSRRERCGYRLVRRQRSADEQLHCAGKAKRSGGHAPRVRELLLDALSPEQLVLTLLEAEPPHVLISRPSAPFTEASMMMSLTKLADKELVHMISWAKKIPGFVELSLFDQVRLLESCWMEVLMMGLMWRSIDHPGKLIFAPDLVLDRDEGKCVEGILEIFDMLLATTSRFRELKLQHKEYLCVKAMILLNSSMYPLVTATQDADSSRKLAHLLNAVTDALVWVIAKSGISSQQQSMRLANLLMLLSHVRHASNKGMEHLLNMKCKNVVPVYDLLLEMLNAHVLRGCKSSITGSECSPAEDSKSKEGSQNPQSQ
UniProt P04150: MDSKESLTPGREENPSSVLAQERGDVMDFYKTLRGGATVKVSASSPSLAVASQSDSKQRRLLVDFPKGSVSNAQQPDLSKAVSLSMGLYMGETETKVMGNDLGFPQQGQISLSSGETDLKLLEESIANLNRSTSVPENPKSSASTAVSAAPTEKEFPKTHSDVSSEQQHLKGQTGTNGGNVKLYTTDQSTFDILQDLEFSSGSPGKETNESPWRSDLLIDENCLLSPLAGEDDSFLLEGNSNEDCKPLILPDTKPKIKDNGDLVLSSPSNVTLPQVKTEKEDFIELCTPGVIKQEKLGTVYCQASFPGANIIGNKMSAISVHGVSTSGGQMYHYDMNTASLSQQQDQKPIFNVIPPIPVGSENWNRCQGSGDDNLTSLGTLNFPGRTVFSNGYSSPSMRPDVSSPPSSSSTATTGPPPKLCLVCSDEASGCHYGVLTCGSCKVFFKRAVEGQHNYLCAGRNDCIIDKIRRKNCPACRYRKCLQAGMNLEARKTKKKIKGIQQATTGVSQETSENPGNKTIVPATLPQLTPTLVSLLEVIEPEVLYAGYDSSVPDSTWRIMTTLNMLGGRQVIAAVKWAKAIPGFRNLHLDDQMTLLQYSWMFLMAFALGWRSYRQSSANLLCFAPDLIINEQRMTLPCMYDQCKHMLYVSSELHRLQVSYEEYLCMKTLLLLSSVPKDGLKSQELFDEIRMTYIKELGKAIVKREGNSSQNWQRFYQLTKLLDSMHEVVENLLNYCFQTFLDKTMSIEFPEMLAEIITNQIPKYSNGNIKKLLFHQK
UniProt P03372, whole entry, looked up: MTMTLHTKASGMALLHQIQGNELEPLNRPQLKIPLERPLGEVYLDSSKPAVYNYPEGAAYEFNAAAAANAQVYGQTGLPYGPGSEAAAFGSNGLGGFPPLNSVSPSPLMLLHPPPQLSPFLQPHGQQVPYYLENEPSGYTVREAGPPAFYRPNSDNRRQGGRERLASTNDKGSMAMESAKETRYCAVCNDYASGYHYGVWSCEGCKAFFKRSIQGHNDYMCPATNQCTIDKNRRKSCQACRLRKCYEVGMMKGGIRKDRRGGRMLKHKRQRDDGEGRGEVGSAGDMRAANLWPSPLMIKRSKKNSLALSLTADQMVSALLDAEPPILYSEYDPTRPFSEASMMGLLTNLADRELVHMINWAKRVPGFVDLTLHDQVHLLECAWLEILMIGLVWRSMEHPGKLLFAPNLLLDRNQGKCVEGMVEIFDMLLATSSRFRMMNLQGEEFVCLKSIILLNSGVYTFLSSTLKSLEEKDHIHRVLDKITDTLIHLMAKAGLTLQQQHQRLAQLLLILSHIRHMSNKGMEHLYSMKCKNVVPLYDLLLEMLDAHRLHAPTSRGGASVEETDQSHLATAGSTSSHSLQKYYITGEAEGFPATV
UniProt P06401: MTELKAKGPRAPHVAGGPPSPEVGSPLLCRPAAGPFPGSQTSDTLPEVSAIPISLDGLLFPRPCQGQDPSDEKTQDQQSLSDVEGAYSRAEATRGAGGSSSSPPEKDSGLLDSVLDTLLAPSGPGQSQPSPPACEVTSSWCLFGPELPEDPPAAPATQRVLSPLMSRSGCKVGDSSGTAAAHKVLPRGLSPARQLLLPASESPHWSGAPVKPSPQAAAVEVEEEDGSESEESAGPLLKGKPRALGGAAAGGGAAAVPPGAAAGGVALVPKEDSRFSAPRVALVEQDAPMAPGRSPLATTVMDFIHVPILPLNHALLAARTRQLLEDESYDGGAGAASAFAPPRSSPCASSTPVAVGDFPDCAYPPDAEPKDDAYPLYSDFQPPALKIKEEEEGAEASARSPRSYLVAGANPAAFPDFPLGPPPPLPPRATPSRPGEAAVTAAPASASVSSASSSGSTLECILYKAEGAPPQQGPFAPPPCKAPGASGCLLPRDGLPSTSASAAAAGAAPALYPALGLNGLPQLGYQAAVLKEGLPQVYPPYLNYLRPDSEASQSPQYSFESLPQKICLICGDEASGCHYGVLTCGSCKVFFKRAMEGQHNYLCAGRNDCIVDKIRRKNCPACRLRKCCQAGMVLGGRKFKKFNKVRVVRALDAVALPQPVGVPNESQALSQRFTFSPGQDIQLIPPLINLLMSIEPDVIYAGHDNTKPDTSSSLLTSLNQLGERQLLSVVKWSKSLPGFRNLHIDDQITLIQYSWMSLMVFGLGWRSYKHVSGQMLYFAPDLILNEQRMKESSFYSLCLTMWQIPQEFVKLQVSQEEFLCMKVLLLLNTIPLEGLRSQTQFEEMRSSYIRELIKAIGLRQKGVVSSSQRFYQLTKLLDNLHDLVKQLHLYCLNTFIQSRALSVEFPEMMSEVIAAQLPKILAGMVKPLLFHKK
UniProt P11712, whole entry, looked up: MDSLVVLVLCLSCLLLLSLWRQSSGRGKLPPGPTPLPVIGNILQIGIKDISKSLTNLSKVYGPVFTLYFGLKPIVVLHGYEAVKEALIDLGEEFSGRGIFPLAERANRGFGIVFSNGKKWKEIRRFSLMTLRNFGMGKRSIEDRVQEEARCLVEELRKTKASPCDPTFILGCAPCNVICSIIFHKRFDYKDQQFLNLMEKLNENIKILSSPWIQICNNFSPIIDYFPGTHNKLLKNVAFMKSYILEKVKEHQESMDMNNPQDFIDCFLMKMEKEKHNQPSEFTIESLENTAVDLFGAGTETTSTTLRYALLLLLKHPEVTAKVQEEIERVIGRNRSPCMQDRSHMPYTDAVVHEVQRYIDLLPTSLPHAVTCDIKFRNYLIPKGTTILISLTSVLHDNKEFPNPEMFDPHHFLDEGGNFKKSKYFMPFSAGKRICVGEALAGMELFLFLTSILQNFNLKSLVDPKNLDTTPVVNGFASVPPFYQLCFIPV
UniProt P05177, whole entry, looked up: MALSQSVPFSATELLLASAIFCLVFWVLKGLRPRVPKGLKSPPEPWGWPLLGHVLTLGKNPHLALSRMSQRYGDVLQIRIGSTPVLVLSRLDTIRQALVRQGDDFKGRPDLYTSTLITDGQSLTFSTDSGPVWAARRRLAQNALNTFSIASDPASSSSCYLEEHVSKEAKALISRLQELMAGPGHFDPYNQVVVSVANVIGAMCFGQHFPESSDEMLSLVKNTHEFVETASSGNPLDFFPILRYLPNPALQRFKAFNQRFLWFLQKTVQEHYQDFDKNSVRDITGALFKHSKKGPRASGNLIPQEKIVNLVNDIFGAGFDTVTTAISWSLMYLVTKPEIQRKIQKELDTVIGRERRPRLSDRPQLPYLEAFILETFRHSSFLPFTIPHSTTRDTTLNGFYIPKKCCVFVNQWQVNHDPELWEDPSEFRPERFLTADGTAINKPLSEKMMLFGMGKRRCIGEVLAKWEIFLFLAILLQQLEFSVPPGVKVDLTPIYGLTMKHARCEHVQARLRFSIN
UniProt P37231: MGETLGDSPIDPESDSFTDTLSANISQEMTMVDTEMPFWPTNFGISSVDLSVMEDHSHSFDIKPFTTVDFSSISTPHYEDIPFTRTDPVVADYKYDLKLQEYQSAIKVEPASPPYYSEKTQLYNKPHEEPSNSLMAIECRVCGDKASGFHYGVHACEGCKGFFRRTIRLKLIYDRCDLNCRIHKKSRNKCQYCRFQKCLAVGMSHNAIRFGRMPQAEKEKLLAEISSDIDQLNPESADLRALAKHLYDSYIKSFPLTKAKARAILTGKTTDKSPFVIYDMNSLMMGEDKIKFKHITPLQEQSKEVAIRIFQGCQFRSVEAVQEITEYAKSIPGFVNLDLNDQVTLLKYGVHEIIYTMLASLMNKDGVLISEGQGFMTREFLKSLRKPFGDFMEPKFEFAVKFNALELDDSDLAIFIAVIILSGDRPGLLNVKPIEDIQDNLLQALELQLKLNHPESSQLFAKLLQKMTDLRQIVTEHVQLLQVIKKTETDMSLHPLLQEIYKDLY
UniProt Q03181: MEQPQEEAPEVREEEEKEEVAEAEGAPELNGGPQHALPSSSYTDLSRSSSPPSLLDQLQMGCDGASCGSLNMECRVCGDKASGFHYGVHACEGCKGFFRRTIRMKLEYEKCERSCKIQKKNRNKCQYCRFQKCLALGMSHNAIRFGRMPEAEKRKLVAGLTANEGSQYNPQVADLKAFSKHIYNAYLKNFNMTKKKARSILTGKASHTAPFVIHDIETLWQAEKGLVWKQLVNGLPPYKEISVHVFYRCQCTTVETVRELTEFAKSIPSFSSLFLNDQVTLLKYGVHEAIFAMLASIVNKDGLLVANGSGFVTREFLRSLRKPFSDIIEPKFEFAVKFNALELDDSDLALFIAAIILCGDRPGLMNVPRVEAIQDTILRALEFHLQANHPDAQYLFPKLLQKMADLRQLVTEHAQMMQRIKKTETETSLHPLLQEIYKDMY
UniProt P11473: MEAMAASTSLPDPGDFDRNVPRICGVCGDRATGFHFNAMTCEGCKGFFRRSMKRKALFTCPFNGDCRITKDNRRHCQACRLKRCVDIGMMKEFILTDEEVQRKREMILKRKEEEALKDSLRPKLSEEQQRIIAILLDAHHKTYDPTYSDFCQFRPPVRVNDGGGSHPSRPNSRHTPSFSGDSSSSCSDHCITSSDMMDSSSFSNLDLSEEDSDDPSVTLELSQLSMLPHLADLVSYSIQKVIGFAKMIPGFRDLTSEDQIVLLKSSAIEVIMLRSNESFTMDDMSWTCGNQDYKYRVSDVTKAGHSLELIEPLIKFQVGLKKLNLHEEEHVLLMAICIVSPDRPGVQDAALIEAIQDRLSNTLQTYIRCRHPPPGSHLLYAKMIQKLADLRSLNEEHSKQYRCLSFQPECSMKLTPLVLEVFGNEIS
UniProt P33261, whole entry, looked up: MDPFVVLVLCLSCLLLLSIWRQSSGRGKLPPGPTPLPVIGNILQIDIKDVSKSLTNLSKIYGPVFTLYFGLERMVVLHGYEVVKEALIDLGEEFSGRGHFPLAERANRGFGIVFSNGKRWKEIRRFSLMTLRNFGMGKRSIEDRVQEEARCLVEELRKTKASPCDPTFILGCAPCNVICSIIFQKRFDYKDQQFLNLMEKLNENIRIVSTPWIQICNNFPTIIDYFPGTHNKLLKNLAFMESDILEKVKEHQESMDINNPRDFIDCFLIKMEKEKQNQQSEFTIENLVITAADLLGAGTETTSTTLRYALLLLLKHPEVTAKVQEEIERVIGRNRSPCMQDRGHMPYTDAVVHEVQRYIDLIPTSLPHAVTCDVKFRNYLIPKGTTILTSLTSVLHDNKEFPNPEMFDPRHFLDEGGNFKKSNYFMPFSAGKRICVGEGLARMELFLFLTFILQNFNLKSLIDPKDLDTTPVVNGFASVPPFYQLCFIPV

Tests used:
[1] = molecular target: Retinoic acid receptor RXR-alpha (Homo sapiens) (UniProt P19793); assay: qHTS assay to identify small molecule agonists of the RXR signaling pathway (AID 1159527; calls by dose curve; also: nearly all actives have a fitted effect of over 35% in size; also: potency is read from the fitted curve at half-maximal effect); settings: HEK293T RXRa-UAS-bla, beta-lactamase ratio, 16 h; activation: at 76.8 µM (top of the series) unless noted
Summary of the method: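 Agonist mode; 9-cis retinoic acid positive control. HEK 293T UAS-bla reporter cells, 2% charcoal-stripped FBS, 16 hr compound exposure at 37 C/5% CO2. LiveBLAzer B/G FRET substrate 2 hr RT; ex 405, em 460/530 nm.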

[2] = molecular target: Estrogen receptor beta (Homo sapiens) (UniProt Q92731); assay: qHTS assay to identify small molecule antagonists of the estrogen receptor beta (ER-beta) signaling pathway (AID 1259378; active = well fitted inhibition curve with a large enough effect in the signal ratio in the repeat runs, not every such curve was filed as active; inconclusive = weak or mixed curves, or effect the other way; inactive = no such curve, though single readings can be large or run the other way; the % refers to the signal ratio; also: % is scaled to controls: 0 for no effect and ±100 for the full control effect); settings: ER-beta-UAS-bla HEK293T, beta-lactamase FRET ratio, 16 h; activity, negative = inhibition: at 92.4 µM (top of the series) unless noted
Summary of the method: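 ER-beta-UAS-bla HEK293T cells in 2% charcoal-stripped FBS medium treated with compound plus 1nM final 17-beta-estradiol for 16 hr at 37C. Beta-lactamase reporter read by FRET substrate fluorescence after 2 hours at room temperature.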

[3] = qHTS assay for small molecule agonists of the p53 signaling pathway (AID 651631; calls by dose curve; also: % is scaled to controls: 0 for no effect and ±100 for the full control effect; nearly all actives have a fitted effect of over 15% in size); settings: HCT-116 p53RE-bla reporter, beta-lactamase FRET ratio, 16 h; activation: at 73.3 µM (top of the series) unless noted
Summary of the method: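 p53RE-bla HCT-116 cells; compounds 16 h, 37 °C; LiveBLAzer B/G FRET substrate 2 h RT; fluorescence intensity read-out, qHTS format.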

[4] = molecular target: Glucocorticoid receptor (Homo sapiens) (UniProt P04150); assay: qHTS assay to identify small molecule antagonists of the glucocorticoid receptor (GR) signaling pathway (AID 720692; active = well fitted inhibition curve with a large enough effect in the signal ratio in the repeat runs, not every such curve was filed as active; inconclusive = weak or mixed curves, or effect the other way; inactive = no such curve, though single readings can be large or run the other way; the % refers to the signal ratio; also: % is scaled to controls: 0 for no effect and ±100 for the full control effect); settings: GR-bla HeLa, beta-lactamase FRET ratio, dexamethasone-stimulated, 18 h; activity change, negative = inhibition: at 58.5 µM (top of the series) unless noted
Summary of the method: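 Read-out: beta-lactamase FRET substrate fluorescence, 2 h at room temperature, in HeLa cells stably carrying a GRE-driven bla reporter. Compounds were co-incubated with 5 nM dexamethasone agonist (final) for 18 h at 37 C.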

[5] = qHTS assay for identifying genotoxic compounds that show differential cytotoxicity against isogenic chicken DT40 cell lines with known DNA damage response pathways - wild type cell line (AID 743012); settings: DT40 wild type chicken cells viability, CellTiter-Glo, 40 h; activity change, negative = cytotoxicity: at 68.4 µM (top of the series) unless noted; also: nearly all actives have a fitted effect of over 60% in size; also: potency is read from the fitted curve at half-maximal effect
Summary of the method: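 CellTiter-Glo luminescence readout of viability in wild type DT40 cells after 40 h compound exposure at 37 C/5% CO2; 300 cells/well; reagent incubated 30 min at room temperature before reading.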

[6] = qHTS assay for identifying genotoxic compounds that show differential cytotoxicity against isogenic chicken DT40 cell lines with known DNA damage response pathways - Rev3 mutant cell line (AID 743014); settings: chicken DT40 Rev3-/- viability, CellTiter-Glo, 40 h; activity, negative = cytotoxicity: at 68.4 µM (top of the series) unless noted; also: potency is read from the fitted curve at half-maximal effect; nearly all actives have a fitted effect of over 55% in size
[7] = qHTS assay to identify small molecule antagonists of the thyroid receptor (TR) signaling pathway - cell viability counter screen (AID 743064); settings: GH3.TRE-Luc viability, CellTiter-Fluor, 24 h; activity change, negative = cytotoxic: at 70.3 µM (top of the series) unless noted; also: potency is read from the fitted curve at half-maximal effect; nearly all actives have a fitted effect of over 50% in size
Summary of the method: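 GH3.TRE-Luc cells, 4 h pre-plating; cpd + T3 1 nM final; 37 °C 23.5 h; CellTiter-Fluor 30 min; fluorescence read.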

[8] = molecular target: Estrogen receptor (Homo sapiens) (UniProt P03372); assay: qHTS assay to identify small molecule agonists of the estrogen receptor alpha (ER-alpha) signaling pathway using the BG1 cell line (AID 743079); settings: BG1Luc4E2 cells, ERE-luciferase agonist, 22 h; activation: at 70.3 µM (top of the series) unless noted; also: nearly all actives have a fitted effect of over 20% in size; also: potency is read from the fitted curve at half-maximal effect
[9] = qHTS assay for small molecule agonists of the antioxidant response element (ARE) signaling pathway (AID 743202; active = well fitted activation curve with a large enough effect in the signal ratio in the repeat runs, not every such curve was filed as active; inconclusive = weak or mixed curves, or effect the other way; inactive = no such curve, though single readings can be large or run the other way; the % refers to the signal ratio; also: potency is read from the fitted curve at half-maximal effect); settings: HepG2 ARE-bla reporter, beta-lactamase FRET, 16 h; activation: at 73.3 µM (top of the series) unless noted
Summary of the method: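 HepG2 ARE-bla reporter line, 2,000 cells/well; 5 h preincubation 37 C/5% CO2; compound (DMSO) 16 h 37 C; B/G FRET substrate 2 h RT; fluorescence intensity.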

[10] = molecular target: Progesterone receptor (Homo sapiens) (UniProt P06401); assay: qHTS assay to identify small molecule antagonists of the progesterone receptor (PR) signaling pathway (AID 1346795; active = well fitted inhibition curve with a large enough effect in the signal ratio in the repeat runs, not every such curve was filed as active; inconclusive = weak or mixed curves; the % refers to the signal ratio; also: % is scaled to controls: 0 for no effect and ±100 for the full control effect); settings: PR-UAS-bla HEK293T, beta-lactamase FRET ratio, 16 h; activity change, negative = inhibition: at 92.4 µM (top of the series) unless noted
Summary of the method: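 Beta-lactamase reporter, HEK293T PR-UAS-bla line; 2% charcoal-stripped FBS; 6 hr pre-incubation, 37C/5% CO2. Compound + R5020 1 nM final, 16 hr. LiveBLAzer B/G FRET substrate, 2 hr RT; fluorescence intensity read.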

[11] = qHTS assay to identify small molecule agonists of the progesterone receptor (PR) signaling pathway - cell viability counter screen (AID 1346799; calls by dose curve; also: % is scaled to controls: 0 for no effect and ±100 for the full control effect; nearly all actives have a fitted effect of over 45% in size)
Summary of the method: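 HEK293T PR-UAS-bla, 3,000 cells/well, 2% charcoal-stripped FBS; 6 h settle, compound 16 h at 37C/5% CO2; LiveBLAzer 2 h RT, then CellTiter-Glo 30 min RT, luminescence read.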

[12] = molecular target: Cytochrome P450 2C9 (Homo sapiens) (UniProt P11712); assay: Cytochrome P450 Family 2 Subfamily C Member 9 (CYP2C9) small molecule antagonists: luciferase reporter qHTS assay (AID 1671198); also: potency is read from the fitted curve at half-maximal effect; nearly all actives have a fitted effect of over 50% in size
Summary of the method: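 P450-Glo proluciferin substrate with CYP2C9 enzyme; 10 min RT preincubation, then NADPH regeneration 1 h at 37C; luciferin detection reagent 20 min RT, luminescence in relative luminescence units.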

[13] = molecular target: Cytochrome P450 1A2 (Homo sapiens) (UniProt P05177); assay: Cytochrome P450 Family 1 Subfamily A Member 2 (CYP1A2) small molecule antagonists: luciferase reporter qHTS assay (AID 1671199); also: nearly all actives have a fitted effect of over 50% in size; also: potency is read from the fitted curve at half-maximal effect
Summary of the method: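 Luminescence readout (relative luminescence units) after luciferin detection reagent, 20 min RT. Preceded by 1 h room-temperature CYP1A2 reaction with NADPH regeneration solution following 10 min compound preincubation with enzyme and proluciferin substrate. Furafylline positive control.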

[14] = qHTS assay for small molecule disruptors of the mitochondrial membrane potential (AID 720635); settings: HepG2 mitochondrial membrane potential, Mito-MPS dye ratio; ratio activity, negative = MMP loss: at 83.2 µM (top of the series) unless noted; also: potency is read from the fitted curve at half-maximal effect
Summary of the method: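 HepG2 cells exposed to compound 1 hr at 37C, then Mito-MPS dye 30 min. Ratio read of aggregate (540/590 nm) versus monomer (490/535 nm) fluorescence.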

[15] = molecular target: Peroxisome proliferator-activated receptor gamma (Homo sapiens) (UniProt P37231); assay: qHTS assay to identify small molecule antagonists of the peroxisome proliferator-activated receptor gamma (PPARg) signaling pathway (AID 743191; calls by dose curve; also: nearly all actives have a fitted effect of over 30% in size; also: potency is read from the fitted curve at half-maximal effect); settings: HEK293H PPARg-UAS-bla, beta-lactamase ratio, antagonist, 17 h; ratio activity, negative = inhibition: at 62.6 µM (top of the series) unless noted
Summary of the method: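 GeneBLAzer PPARg UAS-bla HEK293H cells, 5 h post-plating, exposed to compounds 17 h at 37C. LiveBLAzer B/G FRET substrate added for 1 h at room temperature; beta-lactamase reporter read by fluorescence intensity.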

[16] = molecular target: Peroxisome proliferator-activated receptor delta (Homo sapiens) (UniProt Q03181); assay: qHTS assay to identify small molecule antagonists of the peroxisome proliferator-activated receptor delta (PPARd) signaling pathway (AID 743215; active = well fitted inhibition curve with a large enough effect in the signal ratio in the repeat runs, not every such curve was filed as active; inconclusive = weak or mixed curves, or effect the other way; inactive = no such curve, though single readings can be large or run the other way; the % refers to the signal ratio;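 also: cells stimulated with agonist L165041 at 300 nM final during compound exposure; % is scaled to controls: 0 for no effect and ±100 for the full control effect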); settings: HEK293H PPARd-UAS-bla, beta-lactamase FRET ratio, antagonist, 17 h; ratio activity, negative = inhibition: at 62 µM (top of the series) unless noted
Summary of the method: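 HEK293H GeneBLAzer PPARd UAS-bla reporter cells; cpd + L165041 300 nM final, 17 h 37 C; LiveBLAzer B/G FRET substrate 2 h RT; fluorescence intensity read-out. Antagonist mode.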

[17] = molecular target: Vitamin D3 receptor (Homo sapiens) (UniProt P11473); assay: qHTS assay to identify small molecule antagonists of the vitamin D receptor (VDR) signaling pathway (AID 743223; active = well fitted inhibition curve with a large enough effect in the signal ratio in the repeat runs, not every such curve was filed as active; inconclusive = weak or mixed curves, or effect the other way; inactive = no such curve, though single readings can be large or run the other way; the % refers to the signal ratio; also: % is scaled to controls: 0 for no effect and ±100 for the full control effect); settings: VDR-UAS-bla HEK293T, beta-lactamase FRET ratio, 16 h; activity change, negative = inhibition: at 61 µM (top of the series) unless noted
Summary of the method: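 Beta-lactamase reporter read-out: FRET substrate fluorescence after 2 h at room temperature, following 16 h exposure of VDR-bla cells to test compound plus 3 nM (final) 1alpha,25-dihydroxyvitamin D3 agonist at 37C.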

[18] = molecular target: Cytochrome P450 2C19 (Homo sapiens) (UniProt P33261); assay: Cytochrome P450 Family 2 Subfamily C Member 19 (CYP2C19) small molecule antagonists: luciferase reporter qHTS assay (AID 1671197); also: % is scaled to controls: 0 for no effect and ±100 for the full control effect; nearly all actives have a fitted effect of over 65% in size
Summary of the method: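 P450-Glo CYP2C19 system: enzyme-substrate mix with compound 10 min at room temperature, then NADPH regeneration solution, 1 h at 37C. Proluciferin-to-luciferin conversion detected by luminescence after 20 min with detection reagent; ketoconazole as positive control.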

[19] = qHTS assay to identify small molecule agonists of the farnesoid-X-receptor (FXR) signaling pathway - cell viability counter screen (AID 743218); settings: FXR-bla HEK293T viability, CellTiter-Glo luminescence, 16 h; viability change, negative = cytotoxic: at 62.6 µM (top of the series) unless noted; also: potency is read from the fitted curve at half-maximal effect; nearly all actives have a fitted effect of over 45% in size
Summary of the method: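 Luminescence from CellTiter-Glo, read after 30 min at RT, reports viability of GeneBLAzer FXR-UAS-bla HEK 293T cells treated 16 h with compounds in the wells used for the beta-lactamase reporter.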

CCc1c(Br)c(Br)c(Br)c(Br)c1Br
Potency [1]: active: 38.9 µM
Potency [2]: inactive

CC(C)(C)c1ccc(S)cc1
Potency [3]: inactive
activity change, negative = inhibition [4]: inconclusive: -41.7%
Potency [5]: inconclusive: 68.6 µM [cytotoxic, single point]
Potency [6]: inconclusive: 68.6 µM [cytotoxic, single point]
Potency [7]: inconclusive: 12.2 µM [rising, partial curve, poor fit]
Potency [8]: inconclusive: 48.6 µM [activator, partial curve]
activation [9]: inconclusive: -16.5%
activation [1]: inconclusive: -19.2%
activity, negative = inhibition [2]: inconclusive: -33.4%
Potency [10]: inactive
Potency [11]: inactive
Potency [12]: active: 31.7 µM
Potency [13]: inconclusive: 35.6 µM [inhibitor, full curve]

Cc1scc2c1N(C(=O)CN1CCN(C)CC1)c1ccccc1NC2=O
Potency [14]: inconclusive: 7.5 µM [activator, partial curve, poor fit]
Potency [15]: inactive
Potency [16]: inactive
Potency [17]: inactive
Potency [1]: inactive
Potency [13]: inactive

CC1=CC(=O)[C@H]2C[C@@H]1C2(C)C
Potency [14]: inconclusive: 6.11 µM [activator]
Potency [15]: inactive
Potency [1]: inactive
Potency [18]: inactive

CS(=O)(=O)O
ratio activity, negative = MMP loss [14]: inconclusive: 8.11% [at 95.3 µM]
Potency [5]: inactive
Potency [8]: inactive
Potency [9]: inactive
Potency [19]: inconclusive: 6.96 µM [rising, full curve, poor fit]
Potency [17]: inactive
Potency [1]: inactive

C=CN1CCCCCC1=O
Potency [3]: inactive
activity change, negative = inhibition [17]: inconclusive: 4.67%
Potency [1]: inactive
Potency [2]: inactive
Potency [13]: inconclusive: 71 µM [inhibitor, partial curve]

O=C(c1ccccc1)c1cccc(O)c1
Potency [3]: inactive
Potency [14]: active: 27.7 µM
Potency [5]: inactive
Potency [15]: inconclusive: 24.9 µM [inhibitor]
Potency [9]: inconclusive: 31.1 µM [rising, partial curve]
ratio activity, negative = inhibition [16]: inconclusive: -22.6% [at 80.4 µM]
Potency [1]: inactive
activity, negative = inhibition [2]: inconclusive: -51.2%
activity change, negative = inhibition [10]: inconclusive: -62.9%
Potency [13]: active: 36.2 µM
